Measurements: paper PMC5529656
No constants are given. Whether binding was seen depends on the method and setting. In cells and extracts the contact can be indirect. Some entries that bind do so weakly or less than the wild type.

By UniProt entry, the sequences of proteins in these tests, tags left out. Residues count along the entry.
UniProt O00206, residues 24-839: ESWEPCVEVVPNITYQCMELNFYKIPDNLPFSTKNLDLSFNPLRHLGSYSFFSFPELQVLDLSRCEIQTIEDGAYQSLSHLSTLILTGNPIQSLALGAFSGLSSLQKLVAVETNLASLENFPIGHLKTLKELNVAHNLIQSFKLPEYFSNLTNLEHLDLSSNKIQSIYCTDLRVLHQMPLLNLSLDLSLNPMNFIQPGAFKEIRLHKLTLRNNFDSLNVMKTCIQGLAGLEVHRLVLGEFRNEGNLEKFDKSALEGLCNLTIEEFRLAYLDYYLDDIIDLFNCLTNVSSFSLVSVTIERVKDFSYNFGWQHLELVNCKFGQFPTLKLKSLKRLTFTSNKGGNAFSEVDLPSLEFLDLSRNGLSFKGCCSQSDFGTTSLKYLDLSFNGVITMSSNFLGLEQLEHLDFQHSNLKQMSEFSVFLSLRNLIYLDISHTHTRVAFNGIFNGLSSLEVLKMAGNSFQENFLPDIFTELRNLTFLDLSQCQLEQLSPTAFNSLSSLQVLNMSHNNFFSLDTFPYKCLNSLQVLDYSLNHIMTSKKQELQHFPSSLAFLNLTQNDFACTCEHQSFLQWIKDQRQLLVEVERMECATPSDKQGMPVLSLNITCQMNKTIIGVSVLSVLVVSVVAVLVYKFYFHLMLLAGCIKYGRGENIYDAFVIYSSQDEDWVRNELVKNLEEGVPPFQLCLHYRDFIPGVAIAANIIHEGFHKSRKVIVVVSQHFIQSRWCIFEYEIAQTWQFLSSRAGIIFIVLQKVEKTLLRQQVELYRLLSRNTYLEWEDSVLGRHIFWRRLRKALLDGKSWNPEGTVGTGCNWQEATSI
UniProt P25105: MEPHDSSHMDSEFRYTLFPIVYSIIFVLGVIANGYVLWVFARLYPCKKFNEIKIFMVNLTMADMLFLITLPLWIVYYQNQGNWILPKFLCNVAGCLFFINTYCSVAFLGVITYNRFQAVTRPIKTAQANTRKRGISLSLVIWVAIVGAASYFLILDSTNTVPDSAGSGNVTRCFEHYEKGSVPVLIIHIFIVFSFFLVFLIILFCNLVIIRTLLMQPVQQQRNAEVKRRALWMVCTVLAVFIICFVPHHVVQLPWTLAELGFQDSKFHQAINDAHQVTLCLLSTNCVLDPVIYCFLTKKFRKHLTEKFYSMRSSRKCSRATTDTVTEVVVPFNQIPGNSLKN

Assays:
[1] = molecular target: toll-like receptor 4 (human (endogenous in HUVECs)) (UniProt O00206); assay: co-IP; HUVECs exposed to 30 mM glucose for 8 h; lysates (1% Triton X-100 buffer) incubated with anti-PAFR or anti-TLR4 antibody overnight at 4°C, protein A/G Sepharose beads, immunoblot for PAFR and TLR4; nonimmune IgG as negative control
[2] = molecular target: platelet-activating factor receptor (human (endogenous in HUVECs)) (UniProt P25105); assay: as above

Substance | binding [1] | binding [2]
platelet-activating factor receptor (from UniProt P25105 1-342) | binds | –
toll-like receptor 4 (from UniProt O00206 24-839) | – | binds
